Results as given in PubChem BioAssay AID540276 (National Center for Advancing Translational Sciences (NCATS), 2011).
Several values for one entry are separate records, joined by “and”; a condition that tells them apart may be missing. Equal entries are not always repeated. About 5,400 (1.8%) of roughly 300,000 compounds were called active. This list was built around the results that the source calls inconclusive (neither active nor inactive); the mix of calls is not that of the screen. Calls follow the shape of the full dose curve; tested in HEK293 cells. Where the call is inconclusive, the potency comes from a doubtful curve fit.
Potency is read from the fitted curve at half-maximal effect.

Experiment: qHTS for inhibitors of binding or entry into cells for Marburg Virus
Details: Marburg virus pseudotyped entry inhibition, cell reporter; series mostly up to 37.8 µM
In the case of `COc1ccccc1C1CC(c2c(-c3ccccc3)c3cc(Cl)ccc3[nH]c2=O)=NN1S(C)(=O)=O` (stereo not drawn), the Potency is reported as inconclusive: 35.5 µM [inhibitor, single point].
For `C=CCNc1nc(-c2ccccc2)nc(-n2ccnc2)n1`, the Potency was inconclusive: 5.8 µM [inhibitor, full curve, poor fit].
In the case of `COc1ccc(-n2nc(C(=O)NCC(=O)N3CCCC(C)C3)c3ccccc3c2=O)cc1` (stereo not drawn), the Potency is reported as inconclusive: 6.31 µM [activator, partial curve, poor fit].
With `Cc1sc(NC(=O)c2ccco2)c(C(=O)c2ccc(Cl)cc2)c1C` the Potency was “inactive”.
In the case of `CCCCOC(=O)CCc1c(C)[nH]c(=O)c(C#N)c1C`, the Potency is reported as inconclusive: 3.55 µM [inhibitor, single point].
For `COCCN(CC1CCCN(C2Cc3ccccc3C2)C1)C(=O)c1cccc(C)c1` (stereo not drawn), the Potency was inconclusive: 2.24 µM [inhibitor, partial curve, poor fit].
For `CCOC(=O)C1=C(NC(=S)NC(=O)c2ccccc2)c2ccccc2CC1(C)CC` (stereo not drawn), the Potency was active: 5.8 µM.
In the case of `CC1(C)CN=C(NCc2ccccc2Cl)S1`, the Potency is reported as inconclusive: 29.1 µM [inhibitor, single point].
With `CCn1c(=O)n(-c2ccc3c(c2)OCO3)c2nc(-c3cc(OC)ccc3OC)nc(C(N)=O)c21` the Potency was inconclusive: 15.8 µM [activator, partial curve, poor fit].
In the case of `COc1ccc(OC)c(-c2nnc3n(CCc4ccccc4)c(=O)c4ccccc4n23)c1`, the Potency is reported as “inactive”.
With `COC(=O)c1ccc(NC(=S)Nc2ccccc2)cc1` the Potency was “inactive”.
For `COc1ccccc1NS(=O)(=O)/C=C/c1ccccc1`, the Potency was “inactive”.
In the case of `Cc1nc(N)nc(C)c1Cc1ccccc1`, the Potency is reported as “inactive”.
With `COc1ccc(NC(=O)CSC2=NCCN2)cc1` the Potency was inconclusive: 8.91 µM [inhibitor, partial curve, poor fit].
For `COc1ccc(N2CCN(C(=O)CCc3ccc(S(=O)(=O)NCC(C)C)cc3)CC2)cc1`, the Potency was inconclusive: 8.91 µM [inhibitor, partial curve].
In the case of `CCOc1ccc(CNC(=S)N/N=C/c2ccc(OC)c(OC)c2)cc1`, the Potency is reported as “inactive”.
In the case of `COc1cc(C(=O)Nc2ccc(C(F)(F)F)cc2)ccc1OCC(=O)N1CCOCC1`, the Potency is reported as “inactive”.
For `Cc1ccc(NC(=O)Nc2nc3ccc(S(C)(=O)=O)cc3s2)cc1`, the Potency was “inactive”.
For `CCCCCCC1CC(CSc2ncn[nH]2)OC1=O` (stereo not drawn), the Potency was inconclusive: 2.82 µM [activator, partial curve].
With `Cc1ccc(SCCC(=O)NCc2ccccn2)cc1` the Potency was inconclusive: 20 µM [inhibitor, partial curve, poor fit].
With `CCCc1cc2c(c(NC(C)=O)n1)c(=O)oc1ccccc12` the Potency was inconclusive: 35.5 µM [activator, partial curve, poor fit].
With `COc1ccc(NC(=S)N2CCCN(Cc3cccc(Cl)c3)C2)cc1` the Potency was inconclusive: 11.2 µM [inhibitor, partial curve, poor fit].
With `COc1ccc(Cl)cc1NC(=S)N(Cc1ccccc1C)CC1CCC(C(=O)O)CC1` (stereo not drawn) the Potency was inconclusive: 35.5 µM [inhibitor, partial curve, poor fit].
In the case of `Cc1ccc(OCC(=O)NC(=S)Nc2ccccn2)c(Br)c1`, the Potency is reported as inconclusive: 7.08 µM [inhibitor, partial curve, poor fit].
With `CN(C(=O)C1CCCCN1S(=O)(=O)c1ccccc1)c1ccccc1` (stereo not drawn) the Potency was inconclusive: 10 µM [inhibitor, partial curve, poor fit].
For `COC(=O)c1ccccc1NC(=O)c1sc2nc(C)cc(C)c2c1NC(=O)c1ccccc1Cl`, the Potency was inconclusive: 3.98 µM [inhibitor, single point].
With `COc1cc2c(cc1NC(=O)c1ccc(C)c([N+](=O)[O-])c1)oc1ccccc12` the Potency was inconclusive: 35.5 µM [activator, single point].
For `O=c1oc(-c2ccccc2NS(=O)(=O)c2ccc(F)cc2)nc2ccccc12`, the Potency was “inactive”.
With `N#Cc1nc(COc2ccc(-c3ccccc3)cc2)oc1NCc1cccnc1` the Potency was inconclusive: 7.94 µM [inhibitor, partial curve, poor fit].
For `Cc1cc(Cl)ccc1OC(C)C(=O)NN=C1CCCCCC1` (stereo not drawn), the Potency was inconclusive: 35.5 µM [inhibitor, single point].
In the case of `Cc1cccc(CN2C(=O)NC(c3ccccc3)(c3ccccc3)C2=O)c1`, the Potency is reported as inconclusive: 10 µM [inhibitor, partial curve].
For `CCOc1cccc(NC(=O)C2CC(=O)N(C)C(=Nc3cccc(F)c3)S2)c1` (stereo not drawn), the Potency was “inactive”.
With `O=C(Nc1ccc(N2CCOCC2)cc1)c1ccc2ncsc2c1` the Potency was inconclusive: 1.26 µM [inhibitor, full curve, poor fit].
With `C#CCN1C(=O)S/C(=C\c2ccc(N3CCOCC3)cc2C)C1=O` the Potency was inconclusive: 0.562 µM [activator, full curve, poor fit].
With `COc1cc(CC(=O)O)c(C(C)=O)cc1OC` the Potency was “inactive”.
For `Cc1ccc(NC(=S)N(CCCN2CCOCC2)Cc2ccco2)cc1`, the Potency was “inactive”.
In the case of `CCC(C)NC(=O)NC1C(NC(=O)NC(C)CC)N(C)C(=O)N1C` (stereo not drawn), the Potency is reported as inconclusive: 4.11 µM [inhibitor, partial curve, poor fit].
For `O=C(CN1C2=NCCN2c2ccccc21)c1ccc2c(c1)OCO2`, the Potency was inconclusive: 29.1 µM [inhibitor, single point].
With `CCOP(=O)(c1ccccc1)c1nc(-c2ccccc2Cl)oc1N1CCCCC1` (stereo not drawn) the Potency was inconclusive: 14.6 µM [inhibitor, partial curve, poor fit].
In the case of `COc1ccc(CCNc2oc(COc3ccc(F)cc3)nc2C#N)cc1`, the Potency is reported as “inactive”.
In the case of `COc1ccc(/C(=C/Nc2cccc(Br)c2)C(C)=O)cc1OC`, the Potency is reported as inconclusive: 14.1 µM [inhibitor, single point].
With `O=C(NCc1cccs1)C1CCCCC1` the Potency was inconclusive: 32.6 µM [activator, single point].
With `COC(=O)N(NC(=O)C(O)(c1ccccc1)c1ccccc1)c1ccc(C)cc1` the Potency was inconclusive: 6.31 µM [inhibitor, single point].
For `COc1cc2c(cc1OC)C(C)N(C(=O)c1ccc(Br)o1)CC2` (stereo not drawn), the Potency was inconclusive: 3.16 µM [inhibitor, partial curve, poor fit].
With `COc1ccc(Oc2coc3cc(OC(=O)c4cccs4)ccc3c2=O)cc1` the Potency was inconclusive: 1.58 µM [activator, partial curve, poor fit].
In the case of `COCCNC(=O)Cn1cnc([N+](=O)[O-])n1`, the Potency is reported as inconclusive: 1.41 µM [activator, partial curve, poor fit].
In the case of `CCOC(=O)c1sc2nc(-c3ccccc3)ccc2c1N`, the Potency is reported as inconclusive: 0.0891 µM [activator, full curve, poor fit].
In the case of `O=C(CSc1nnc(COc2ccc(Br)cc2)o1)NC1CCCCC1`, the Potency is reported as inconclusive: 3.98 µM [inhibitor, single point].
For `O=C(Nc1nc2ccccc2n1CCN1CCCCC1)C1CCCCC1`, the Potency was inconclusive: 8.91 µM [inhibitor, partial curve, poor fit].
With `CCc1c(C)nc2ncnn2c1N1CCCC(C(=O)NCCc2ccccc2)C1` (stereo not drawn) the Potency was “inactive”.
With `O=C(NCc1cccc(C(F)(F)F)c1)C1CCN(c2ncccn2)CC1` the Potency was “inactive”.
For `COc1ccc(/C=N/NC(=O)CCOc2ccccc2C)cc1OC`, the Potency was inconclusive: 18.4 µM [inhibitor, single point].
In the case of `O=c1n(-c2ccccc2)c(=O)n2n1CC[C@@H]1C(=NOC[C@@H](O)COCc3ccco3)[C@H]3O[C@H]3[C@@H](O)[C@H]12`, the Potency is reported as “inactive”.
With `C=CCN1C(=O)C2(NC(=O)c3ccccc3N2)c2ccccc21` (stereo not drawn) the Potency was inconclusive: 10 µM [inhibitor, partial curve, poor fit].
With `CC1CCc2[nH]c3ccc(C(=O)NCC4CCCO4)cc3c2C1` (stereo not drawn) the Potency was inconclusive: 3.98 µM [activator, partial curve].
For `CCOC(=O)N1CCN(C(=O)c2cn(C)c3ccc(S(=O)(=O)N4CCC(C)CC4)cc3c2=O)CC1`, the Potency was “inactive”.
For `Cc1ccc(C(=O)Nc2ccc(Br)c(C(F)(F)F)c2)cc1`, the Potency was active: 16.4 µM.
For `O=C1c2cccc3cccc(c23)C(=O)N1Cc1cccnc1`, the Potency was inconclusive: 6.31 µM [inhibitor, single point].
For `Cc1ccc(CCNC(=O)CCNS(=O)(=O)c2ccc3c(c2)oc(=O)n3C)cc1`, the Potency was “inactive”.
With `C/C=C/c1ccc(OCC(=O)Nc2ccc(OC)c(OC)c2)c(OC)c1` the Potency was inconclusive: 4.47 µM [inhibitor, full curve, poor fit].
In the case of `CCOc1cccc(OCCOCCN(C)Cc2ccccc2)c1`, the Potency is reported as inconclusive: 35.5 µM [inhibitor, single point].
With `C=CCN1CCC2(C)c3cc(O)ccc3CC1[C@@H]2C` (stereo partly drawn) the Potency was inconclusive: 0.891 µM [inhibitor, full curve, poor fit].
With `COc1ccccc1NC(=O)COC(=O)c1ccc2c(c1)OCCO2` the Potency was inconclusive: 35.5 µM [inhibitor, single point].
For `C#CCSc1nnc(-c2ccc(OC)cc2)o1`, the Potency was inconclusive: 35.5 µM [inhibitor, single point].
With `O=C(c1ccc2snnc2c1)N1CCN(c2ccccc2)CC1` the Potency was inconclusive: 0.501 µM [activator, full curve, poor fit].
For `CCOC(=O)c1sc2ncn(CC(=O)Nc3cc(C)cc(C)c3)c(=O)c2c1C`, the Potency was inconclusive: 2 µM [activator, full curve].
For `COc1ccccc1C(=O)NCC(c1cccs1)N1CCc2ccccc21` (stereo not drawn), the Potency was inconclusive: 35.5 µM [inhibitor, single point].
With `CC(C)(C)NCC(O)COc1cccc2[nH]c(=O)[nH]c12` (stereo not drawn) the Potency was “inactive and inconclusive: 355 nM [activator, single point]”.
